Data as given in article PMC6973269 (Chembiochem, 2019).

Assay: general procedure: Fmoc solid-phase peptide synthesis; Rink Amide (MBHA) resin, Rink Amide NovaSyn TGR resin or ChemMatrix Rink Amide resin; HCTU/DIEA; COMU/Oxyma/DIEA for building blocks
Conditions: whole synthesis; for final HPLC purity: UV 210 nm; for isolated yield: on vendor loading

In the case of Myr – G A G A S S5 E E K S5 K, the “final HPLC purity” value is reported as 99% and the isolated yield is reported as 14%.

For Lau – G A G A S S E E K S K, the “final HPLC purity” value was 99% and the isolated yield was 9%.

For Lau – G A G A S A R E K S K, the “final HPLC purity” value was 98% and the isolated yield was 7%.

In the case of Myr – G R G A S A E E K H K, the “final HPLC purity” value is reported as 99% and the isolated yield is reported as 11%.

With Myr – G A G A S A R E K S K the “final HPLC purity” value was 97% and the isolated yield was 8%.

With Myr – G A G A S R E E S H K the “final HPLC purity” value was 98% and the isolated yield was 9%.

In the case of Myr – G A G A S A E E K H K, the “final HPLC purity” value is reported as 98% and the isolated yield is reported as 10%.

For Myr – G A R A S S E E K H K, the “final HPLC purity” value was 99% and the isolated yield was 8%.

In the case of Ac – G A G A S S5 E E K S5 K, the “final HPLC purity” value is reported as 98% and the isolated yield is reported as 12%.

In the case of Lau – G A G A S R E E S H K, the “final HPLC purity” value is reported as 98% and the isolated yield is reported as 8%.
